From US20060211081A1, “Sec14 as an antifungal target” (priority 2002, published 2006)
At least one structure is not confirmed: it was looked up by name or label, or the drawing left a doubt.

Assays:
[1] = system: C. albicans strain modified to include a tetracycline-regulatable SEC14-expression system; experiment: Colony formation on SC-U agar plates by the tetracycline-regulatable SEC14 C. albicans strain, plus or minus doxycycline; format: cell-based; conditions: 20 μg/ml doxycycline, SC-U plus 2% agar, scored after 2 days at 30° C.; SEC14 expression repressed
[2] = system: tetracycline-regulatable SEC14-expression system C. albicans strain; experiment: Growth curves in liquid YEPD medium of the tetracycline-regulatable SEC14 C. albicans strain, plus or minus doxycycline; format: cell-based; conditions: 20 μl/ml doxycycline, 30° C., up to 43 h, SEC14 expression repressed

SMILES: C[C@H]1c2cccc(O)c2C(=O)C2=C(O)[C@]3(O)C(=O)C(C(N)=O)=C(O)[C@@H](N(C)C)[C@@H]3[C@@H](O)[C@@H]21 [doxycycline]
- Growth (ability to form colonies) [1]: Significant impairment in the ability to form colonies
- Growth rates (optical density 600 nm) [2]: Significantly reduced growth rates
